Laboratory results published in PMC3862036.
These are yes or no findings as the source states them, for the method shown. Some binding calls cover weakened binding; strength is not graded here.

Target: T1, BET-1 full length (C. elegans) (UniProt Q95Y80)
T1 sequence: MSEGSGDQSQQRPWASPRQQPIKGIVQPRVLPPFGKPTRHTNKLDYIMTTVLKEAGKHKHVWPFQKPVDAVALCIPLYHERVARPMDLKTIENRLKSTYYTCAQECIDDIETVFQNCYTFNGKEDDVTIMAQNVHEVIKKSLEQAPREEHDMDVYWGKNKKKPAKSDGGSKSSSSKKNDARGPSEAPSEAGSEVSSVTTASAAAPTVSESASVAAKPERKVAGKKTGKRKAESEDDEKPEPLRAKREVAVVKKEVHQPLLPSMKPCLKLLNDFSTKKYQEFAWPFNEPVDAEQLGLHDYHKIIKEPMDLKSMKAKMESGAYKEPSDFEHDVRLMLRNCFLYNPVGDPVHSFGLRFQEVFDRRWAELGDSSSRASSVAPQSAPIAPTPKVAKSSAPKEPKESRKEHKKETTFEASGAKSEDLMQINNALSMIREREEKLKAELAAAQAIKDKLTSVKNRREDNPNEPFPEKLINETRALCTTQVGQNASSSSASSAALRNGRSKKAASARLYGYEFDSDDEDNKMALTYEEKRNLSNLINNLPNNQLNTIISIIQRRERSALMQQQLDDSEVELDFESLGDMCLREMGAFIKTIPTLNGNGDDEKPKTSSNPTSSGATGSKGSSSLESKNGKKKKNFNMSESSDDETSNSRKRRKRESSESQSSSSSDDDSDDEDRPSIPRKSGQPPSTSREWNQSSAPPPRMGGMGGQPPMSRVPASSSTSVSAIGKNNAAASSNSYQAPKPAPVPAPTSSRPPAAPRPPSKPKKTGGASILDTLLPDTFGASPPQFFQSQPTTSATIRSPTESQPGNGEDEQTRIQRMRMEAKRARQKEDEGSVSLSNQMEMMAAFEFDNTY
Assay: two-hybrid; yeast; BET-1 full length or fragments as pLexA-NLS baits, SMO-1 or UBC-9 as pACT preys; six serial 1:5 dilutions spotted on CSM-Leu-Trp and CSM-Leu-Trp-His, 30°C, 72 hours

B1: UBC-9 (enzyme, UniProt Q95017 1-166)
chain: MSGIAAGRLAEERKHWRKDHPFGFIAKPVKNADGTLNLFNWECAIPGRKDTIWEGGLYRIRMLFKDDFPSTPPKCKFEPPLFHPNVYPSGTVCLSLLDENKDWKPSISIKQLLIGIQDLLNHPNIEDPAQAEAYQIYCQNRAEYEKRVKKEAVKYAAELVQKQMLE
  binding: binds
